Experimental data from PMC12946505.
For at least one entry, the source does not settle the construct or the ends of the probe. A weaker result is weaker than the reference pair of the same experiment. At least one verdict was read from the data and is not stated in words by the source.

Target: RrJMJ12-HIS (Rosa rugosa) (UniProt A0A2P6P5A5)
Experiment: EMSA
Settings: EMSA/Gel-Shift Kit (Beyotime) binding buffer, 30 min at 24 C, salt and pH not stated, recombinant protein, protein details: His (pET32a), label: biotin
[1] = increasing RrMYB2-GST (full CDS)

Sequence | binding result [1] | binding result (without RrMYB2)
GTCTTATTTTTCTCTGTTTTCTTTTTTGGTATT (double strand) [Probe3] | binds more weakly | binds
TAATTAGGTATCTCTGCTCGAGTTCTTTTG (double strand) [Probe5] | binds more weakly | binds
TTTCTCATGAACCCTCTGCTTTCTCATCTTGGGT (double strand) [Probe2] | binds more weakly | binds
